Earlier results as cited in patent publication US20110048980A1, “Fatty Acid Oxidation Inhibitors Treating Hyperglycemia and Related Disorders” (Symcopeia Company, priority 2007, published 2011).
For at least one compound, name, drawing or mass did not settle the structure.

Conditions: IGT patients

## CN(CCOc1ccc(CC2SC(=O)NC2=O)cc1)c1ccccn1 (stereo not shown) [rosiglitazone]
  reduction of onset of T2DM as compared to placebo: 60%
